Measurements published in US20050058640A1 (BAXTER INTERNATIONAL, published 2005).

By UniProt entry, the sequences of proteins in these tests, tags left out. Where a name states a change or a piece, a line headed by the entry shows the natural chain unless it says otherwise.
UniProt P00740: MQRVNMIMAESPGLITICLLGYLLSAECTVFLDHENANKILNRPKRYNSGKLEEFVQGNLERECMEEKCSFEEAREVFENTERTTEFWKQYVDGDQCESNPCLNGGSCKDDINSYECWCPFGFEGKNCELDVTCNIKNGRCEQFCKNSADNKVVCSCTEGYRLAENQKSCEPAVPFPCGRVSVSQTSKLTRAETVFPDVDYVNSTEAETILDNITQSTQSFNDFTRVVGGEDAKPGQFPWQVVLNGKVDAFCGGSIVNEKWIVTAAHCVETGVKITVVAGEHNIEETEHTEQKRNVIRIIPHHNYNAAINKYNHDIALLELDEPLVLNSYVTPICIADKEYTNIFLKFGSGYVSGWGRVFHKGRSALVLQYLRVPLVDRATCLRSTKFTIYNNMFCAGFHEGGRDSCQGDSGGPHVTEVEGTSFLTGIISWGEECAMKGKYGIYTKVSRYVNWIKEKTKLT
UniProt P00741: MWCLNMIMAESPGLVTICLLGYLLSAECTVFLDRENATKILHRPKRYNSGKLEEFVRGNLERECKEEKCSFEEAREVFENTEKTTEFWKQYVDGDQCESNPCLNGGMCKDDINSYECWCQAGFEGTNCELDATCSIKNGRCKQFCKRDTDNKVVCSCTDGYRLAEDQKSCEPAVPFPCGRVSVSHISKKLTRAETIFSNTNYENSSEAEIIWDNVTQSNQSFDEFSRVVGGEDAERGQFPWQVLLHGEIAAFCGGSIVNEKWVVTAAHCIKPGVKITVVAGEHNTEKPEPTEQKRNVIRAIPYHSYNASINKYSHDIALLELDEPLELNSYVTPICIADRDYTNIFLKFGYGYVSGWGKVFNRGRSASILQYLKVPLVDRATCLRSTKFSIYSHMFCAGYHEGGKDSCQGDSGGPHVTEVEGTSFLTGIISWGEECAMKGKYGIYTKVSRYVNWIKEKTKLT

Assays:
[1] = target: T1, human factor IXa (human, UniProt P00740 47-191; P00740 227-461); experiment: SPR (BIACORE), 3 mM EDTA
[2] = target: T1, human factor IXa; experiment: SPR (BIACORE): antibody captured by anti-mouse Fc gamma (RAMFc) on a CM5 chip, 5.56 nM FIXa injected, 5 mM CaCl2; 5 min association, 12 min dissociation
[3] = target: bovine FIXa (bovine) (UniProt P00741); experiment: ELISA and Western blot
[4] = target: T1, human factor IXa; experiment: ELISA and Western blot
[5] = target: T1, human factor IXa; experiment: SPR (BIACORE), 5.56 nM FIXa, 5 mM CaCl2
[6] = target: T1, human factor IXa; experiment: SPR (BIACORE)

Measured: binding

B1: antibody 224F3 (antibody, V domains shown)
VH: QVQMQQSGAELVKPGASVKLSCKASGYTFTSQDINWVRQRPEQGLEWIGWIFPGDGSTKYNEKLKGKATLTTDKSSSTAFMQLSRLTSEDSAVYFCARSAYYRYDGSYYYAMDYWGQGTSVTVSS
VL: QIVLTQSPAIMSASLGEEITLTCSASSSVSYMLWYQQKSGTSPKLLIYTTSNLASGVPSRFSGTGSGTFYSLTISSVEAEDAADYYCHQWSSYPRTFGGGTKLEIKR
binds: all assays above

No constants are given. Whether binding was seen depends on the method and setting. A result given as binding can be weak or reduced; the word gives no strength.
